Results on three molecules are retold here after publication PMC3000357 (PLoS Genetics, 2010).

The target in assay [1] is T1, Bacillus subtilis Single-Stranded DNA Binding protein (SSB), purified (Bacillus subtilis) (UniProt P37455).
T1 sequence: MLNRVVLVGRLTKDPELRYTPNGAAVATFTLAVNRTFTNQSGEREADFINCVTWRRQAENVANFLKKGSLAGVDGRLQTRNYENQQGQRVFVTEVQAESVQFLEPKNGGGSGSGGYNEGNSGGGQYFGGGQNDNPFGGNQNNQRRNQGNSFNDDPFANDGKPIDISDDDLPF
Kind of assay: SEC; purified RecS (4 µM) or YpbB/RecS (4 µM) mixed on ice with SSB (16 µM or 40 µM, as monomers) and loaded onto a gel-filtration column; fractions on SDS-PAGE, Coomassie; both purified. For orientation: SEC sorts molecules by how far they enter the pores of the column.

Assay [2] has as its target T1, Bacillus subtilis Single-Stranded DNA Binding protein (SSB), purified (Bacillus subtilis). Kind of assay: pull-down; streptavidin magnetic beads with a biotinylated 65-mer ssDNA coated by purified SSB or SSBΔ6 (80 pmol of tetramer; SSBΔ35: 100 pmol of tetramer, 60 pmol of tested protein); purified protein added in 20 mM Tris-HCl pH 7.5, 200 mM NaCl, 30 min, 20°C; SDS-PAGE, Coomassie; both purified.

In assay [3] the target is T2, SSBΔ6, purified (Bacillus subtilis) (UniProt P37455).
T2 sequence: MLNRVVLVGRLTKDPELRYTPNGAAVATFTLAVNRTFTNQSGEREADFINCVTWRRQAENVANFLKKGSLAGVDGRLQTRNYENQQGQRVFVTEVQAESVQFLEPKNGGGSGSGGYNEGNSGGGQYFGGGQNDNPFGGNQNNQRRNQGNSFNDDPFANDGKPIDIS
The description is as above.

The target of assay [4] is T3, SSBΔ35, purified (Bacillus subtilis) (UniProt P37455).
T3 sequence: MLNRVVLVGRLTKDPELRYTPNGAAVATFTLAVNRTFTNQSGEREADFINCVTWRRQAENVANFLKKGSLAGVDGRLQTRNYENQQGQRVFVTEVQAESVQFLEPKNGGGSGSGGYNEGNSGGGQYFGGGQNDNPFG
Described as above.

These are yes or no findings as the source states them, for the method shown. Some results given as binding are weak or reduced against the parent protein; the word gives no strength.

B1: RecS, purified (enzyme, UniProt P50729 1-496)
chain: MTKLQQTLYQFFGFTSFKKGQQDIIESILSGKDTIAMLPTGGGKSLCYQLPGYMLDGMVLIVSPLLSLMEDQVQQLKARGEKRAAALNSMLNRQERQFVLEHIHRYKFLYLSPEALQSPYVLEKLKSVPISLFVIDEAHCISEWGHDFRPDYSKLGQLRKKLGHPPVLALTATATKETLQDVMNLLELQHAVRHLNSVNRPNIALRVENAADTAEKIDRVIQLVENLQGPGIVYCPTRKWAKELAGEIKSKTSSRADFYHGGLESGDRILIQQQFIHNQLDVICCTNAFGMGVDKPDIRYVIHFHLPQTAEAFMQEIGRAGRDGKPSVSILLRAPGDFELQEQIIQMESVTAEEIADVIRVLEKTEERDERRLRDVLLQYGVGETQARMMIHLFMQGKTSVELMKKEISYRMELKLEKMHRVSFLLQRDGCLRQALLTYFDESYEPDDGNLPCCSHCGFDLSLYEQKGERSKMAPLDSWSSELHRIFSLQTVGELN
Take B1: the binding result in assay [1] is listed as “no binding (tested: RecS 4 µM, SSB 16 µM)”.

B2: PcrA, purified (enzyme, UniProt O34580 1-739)
chain: MNYISNQLLSGLNPVQQEAVKTTDGPLLLMAGAGSGKTRVLTHRIAYLMAEKHVAPWNILAITFTNKAAREMKERVESILGPGADDIWISTFHSMCVRILRRDIDRIGINRNFSILDTADQLSVIKGILKERNLDPKKFDPRSILGTISSAKNELTEPEEFSKVAGGYYDQVVSDVYADYQKKLLKNQSLDFDDLIMTTIKLFDRVPEVLEFYQRKFQYIHVDEYQDTNRAQYMLVKQLAERFQNLCVVGDSDQSIYRWRGADITNILSFEKDYPNASVILLEQNYRSTKRILRAANEVIKNNSNRKPKNLWTENDEGIKISYYRGDNEFGEGQFVAGKIHQLHSTGKRKLSDIAILYRTNAQSRVIEETLLKAGLNYNIVGGTKFYDRKEIKDILAYLRLVSNPDDDISFTRIVNVPKRGVGATSLEKIASYAAINGLSFFQAIQQVDFIGVSAKAANALDSFRQMIENLTNMQDYLSITELTEEILDKTEYREMLKAEKSIEAQSRLENIDEFLSVTKNFEQKSEDKTLVAFLTDLALIADIDQLDQKEEESGGKDAITLMTLHAAKGLEFPVVFLMGLEEGVFPHSRSLMEEAEMEEERRLAYVGITRAEQELYLTNAKMRTLFGRTNMNPESRFIAEIPDDLLENLNEKKETRATSARKMQPRRGPVSRPVSYASKTGGDTLNWAVGDKAGHKKWGTGTVVSVKGEGEGTELDIAFPSPVGVKRLLAAFAPIEKQ
Consider B2, for which, in assay [2], the binding entry is “no binding”.

B3: DnaE, purified (enzyme, UniProt O34623 1-1115)
chain: MSFVHLQVHSGYSLLNSAAAVEELVSEADRLGYASLALTDDHVMYGAIQFYKACKARGINPIIGLTASVFTDDSELEAYPLVLLAKSNTGYQNLLKISSVLQSKSKGGLKPKWLHSYREGIIAITPGEKGYIETLLEGGLFEQAAQASLEFQSIFGKGAFYFSYQPFKGNQVLSEQILKLSEETGIPVTATGDVHYIRKEDKAAYRCLKAIKAGEKLTDAPAEDLPDLDLKPLEEMQNIYREHPEALQASVEIAEQCRVDVSLGQTRLPSFPTPDGTSADDYLTDICMEGLRSRFGKPDERYLRRLQYELDVIKRMKFSDYFLIVWDFMKHAHEKGIVTGPGRGSAAGSLVAYVLYITDVDPIKHHLLFERFLNPERVSMPDIDIDFPDTRRDEVIQYVQQKYGAMHVAQIITFGTLAAKAALRDVGRVFGVSPKEADQLAKLIPSRPGMTLDEARQQSPQLDKRLRESSLLQQVYSIARKIEGLPRHASTHAAGVVLSEEPLTDVVPLQEGHEGIYLTQYAMDHLEDLGLLKMDFLGLRNLTLIESITSMIEKEENIKIDLSSISYSDDKTFSLLSKGDTTGIFQLESAGMRSVLKRLKPSGLEDIVAVNALYRPGPMENIPLFIDRKHGRAPVHYPHEDLRSILEDTYGVIVYQEQIMMIASRMAGFSLGEADLLRRAVSKKKKEILDRERSHFVEGCLKKEYSVDTANEVYDLIVKFANYGFNRSHAVAYSMIGCQLAYLKAHYPLYFMCGLLTSVIGNEDKISQYLYEAKGSGIRILPPSVNKSSFPFTVENGSVRYSLRAIKSVGVSAVKDIYKARKEKPFEDLFDFCFRVPSKSVNRKMLEALIFSGAMDEFGQNRATLLASIDVALEHAELFAADDDQMGLFLDESFSIKPKYVETEELPLVDLLAFEKETLGIYFSNHPLSAFRKQLTAQGAVSILQAQRAVKRQLSLGVLLSKIKTIRTKTGQNMAFLTLSDETGEMEAVVFPEQFRQLSPVLREGALLFTAGKCEVRQDKIQFIMSRAELLEDMDAEKAPSVYIKIESSQHSQEILAKIKRILLEHKGETGVYLYYERQKQTIKLPESFHINADHQVLYRLKELLGQKNVVLKQW
For B3, the binding entry in assay [3] and in assay [4] was “binds weakly” each time.
